Reference: PMC10381965

Legend:
[1] = system: CBF1 + CCAN (CENP-LN, CENP-OPQU+, CENP-HIK-TW, CENP-C) + CENP-A histone octamer (CENP-A, H4, H2A, H2B) + CBF3Core (Cep3, Ctf13, Skp1); assay: SEC-MALS; details: holo-inner kinetochore with CENP-C; proteins purified in 20 mM Hepes pH 8.0, 300 mM NaCl, 0.5 mM TCEP; recombinant protein
[2] = system: CBF1 + CCANΔC (CENP-LN, CENP-OPQU+ with Nkp1-Nkp2, CENP-HIK-TW + no CENP-C) + CENP-A histone octamer (CENP-A, H4, H2A, H2B) + scFv (CENP-A nucleosome-stabilizing single-chain antibody); assay: cryo-EM (10 Å); details: di-CCAN, both protomers non-topological, CBF3Core absent from the reconstruction though in the IKCEN3 sample; proteins purified in 20 mM Hepes pH 8.0, 300 mM NaCl, 0.5 mM TCEP; recombinant protein
[3] = system: CBF1 + CCANΔC (CENP-LN, CENP-OPQU+ with Nkp1-Nkp2, CENP-HIK-TW + no CENP-C) + CENP-A histone octamer (CENP-A, H4, H2A, H2B) + scFv (CENP-A nucleosome-stabilizing single-chain antibody); assay: cryo-EM structure (3.4 Å); details: no CBF3Core, proteins purified in 20 mM Hepes pH 8.0, 300 mM NaCl, 0.5 mM TCEP, recombinant protein
[4] = system: CBF1 + CCANΔC (CENP-LN, CENP-OPQU+ with Nkp1-Nkp2, CENP-HIK-TW + no CENP-C) + CENP-A histone octamer (CENP-A, H4, H2A, H2B) + CBF3Core (Cep3, Ctf13, Skp1) + scFv (CENP-A nucleosome-stabilizing single-chain antibody); assay: cryo-EM structure (3.7-3.8 Å multibody; ~5 Å consensus); details: IKC0N3, BS3 cross-linked, 90 bp wrapped, 33 bp 5' and 24 bp 3' unwrapped, proteins purified in 20 mM Hepes pH 8.0, 300 mM NaCl, 0.5 mM TCEP, recombinant protein

Sequence | binding result [1] | binding result [2] | binding result [3] | binding result [4]
ATAAGTCACATGATGATATTTGATTTTATTATATTTTTAAAAAAAGTAAAAAATAAAAAGTAGTTTATTTTTAAAAAATAAAATTTAAAATATTAGTGTATTTGATTTCCGAAAGTTAAAAAAGAAATAGTAAGAAATATATATTTCATTGAA (double strand) [CEN3 153 bp (native)] | binds | binds | – | –
ATAAGTCACATGGTGCCGAGGCCGCTCAATTGGTCGTAGACAGCTCTAGCACCGCTTAAACGCACGTACGCGCTGTCCCCCGCGTTTTAATATTAGTGTATTTGATTTCCGAAAGTTAAAAAAGAAATAGTAAGAAATATATATTTCATTGAA (double strand) [C0N3 153 bp (chimeric CEN3/W601)] | – | – | binds | binds

The exact form of at least one protein or probe is not confirmed. For some of these results: At least one verdict was read from the data and is not stated in words by the source.
